According to PMC6471077:
Results are given in words; binding and its absence hold for the method and conditions named. Some entries that bind do so weakly or less than the wild type.

Biological target: T1, bZIP10 (rice (Oryza sativa L.)) (UniProt Q8RZ35)
T1 sequence: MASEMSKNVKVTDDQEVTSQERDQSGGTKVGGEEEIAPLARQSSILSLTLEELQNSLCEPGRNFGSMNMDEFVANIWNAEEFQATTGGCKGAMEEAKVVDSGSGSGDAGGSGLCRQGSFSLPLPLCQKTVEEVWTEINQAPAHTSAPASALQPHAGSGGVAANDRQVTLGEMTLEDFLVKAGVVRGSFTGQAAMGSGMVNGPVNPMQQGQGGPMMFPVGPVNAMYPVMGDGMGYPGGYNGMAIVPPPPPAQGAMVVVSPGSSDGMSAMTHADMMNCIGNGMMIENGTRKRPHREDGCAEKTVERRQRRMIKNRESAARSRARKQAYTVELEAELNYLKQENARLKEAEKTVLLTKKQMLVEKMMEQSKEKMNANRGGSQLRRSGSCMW
Test: two-hybrid; bZIPs as baits in pDEST32, SAPKs as preys in pDEST22 (ProQuest system), co-transformed into yeast Y2HGold; growth on SD/-Trp-Leu-Ade-His with X-alpha-Gal; three repeats, positive only if positive in all three

B1: SAPK6 (enzyme, UniProt Q6ZI44 1-365)
chain: MEKYELLKDIGSGNFGVARLMRNRETKELVAMKYIPRGLKIDENVAREIINHRSLRHPNIIRFKEVVLTPTHLAIVMEYAAGGELFDRICSAGRFSEDESRYFFQQLICGVSYCHFMQICHRDLKLENTLLDGSPAPRLKICDFGYSKSSLLHSKPKSTVGTPAYIAPEVLSRREYDGKMADVWSCGVTLYVMLVGAYPFEDPDDPKNFRKTIGRIVSIQYKIPEYVHISQDCRQLLSRIFVANPAKRITIREIRNHPWFMKNLPRELTEAAQAKYYKKDNSARTFSDQTVDEIMKIVQEAKTPPPSSTPVAGFGWTEEEEQEDGKNPDDDEGDRDEEEGEEGDSEDEYTKQVKQAHASCDLQKS
For B1, the binding was “binds”.
